The assay has as its system L1210 leukemia ip in BDF1 mice, survival T/C. Briefly: NCI In Vivo Anticancer Drug Screen. Data for tumor model L1210 Leukemia (intraperitoneal) in B6D2F1 (BDF1) mice. The note with it: T/C endpoint: mean survival time, higher T/C = longer survival.
The mark [1] stands for this setting: dose: 50.0 mg/kg/injection, schedule: Q01DX009 (ip), vehicle: water.
Where [2] appears, read: dose: 200.0 mg/kg/injection, schedule: Q01DX009 (ip), vehicle: water.
The mark [3] stands for this setting: dose: 200.0 mg/kg/injection, schedule: Q04DX003 (ip), vehicle: saline with Tween-80.
Setting [4] is: dose: 400.0 mg/kg/injection, schedule: Q04DX003 (ip), vehicle: saline with Tween-80.
The mark [5] stands for this setting: dose: 200.0 mg/kg/injection, schedule: Q01DX001 (ip), vehicle: saline.
[6] abbreviates: dose: 400.0 mg/kg/injection, schedule: Q01DX001 (ip), vehicle: saline.
Where [7] appears, read: dose: 100.0 mg/kg/injection, schedule: Q01DX001 (ip), vehicle: carboxymethylcellulose (CMC).
[8] abbreviates: dose: 100.0 mg/kg/injection, schedule: Q01DX001 (ip), vehicle: saline.
Setting [9] is: dose: 3.0 mg/kg/injection, schedule: Q01DX009 (ip), vehicle: carboxymethylcellulose (CMC).

The list shows only some results of the screen, not a fair sample: it is rich in T/C values a quarter to a half above the control, in often repeated tests (any T/C) and in doses without a T/C. Further doses and runs are listed elsewhere. T/C: endpoint of the treated group in % of that of the vehicle group. Some entries give survivors of the animals treated and no T/C: the source holds a T/C of zero for them, seemingly a mark for toxic or unscored doses. Some doses without a T/C left all or most animals alive at the check, yet need not have been tolerated: survival well below the control is almost never listed, so the zero probably covers shortened survival too. Survivors were counted at the toxicity check, usually on the fifth day, unless a day is given; later deaths do not show. Schedules are NCI's codes, read here as Q, the interval in days (D) or hours (H), X, the number of doses. Some schedules carry Z or #; the key to these is not given. Where survival is the endpoint, this PubChem deposit counts one and a half times the control or more as active, and values a quarter to a half above the control carry no call in these data; other NCI protocols may use other cut-offs. Some T/C values carry the count of animals alive at the toxicity check (mostly the fifth day); without a count, all were alive then. Some entries were tested several times; their values stand side by side, smallest first.

In the case of `CNC(=O)c1ccc(NC(=O)Nc2ccc(C3=NCCCN3)cc2)cc1NC(=O)Nc1ccc(C2=NCCCN2)cc1`, the T/C is, setting by setting: (dose: 37.0 mg/kg/injection, schedule: Q01DX Z (ip), vehicle: carboxymethylcellulose (CMC)) 138 % of control; (dose: 75.0 mg/kg/injection, schedule: Q01DX Z (ip), vehicle: carboxymethylcellulose (CMC)) 138 % of control. The survivor count by setting is: (dose: 150.0 mg/kg/injection, schedule: Q01DX Z (ip), vehicle: carboxymethylcellulose (CMC)) 2 of 6; (dose: 200.0 mg/kg/injection, schedule: Q01DX Z (ip), vehicle: carboxymethylcellulose (CMC)) 0 of 6; (dose: 300.0 mg/kg/injection, schedule: Q01DX Z (ip), vehicle: carboxymethylcellulose (CMC)) 0 of 6.

As to `O=C1c2ccccc2C(=O)N1CC[P+](c1ccccc1)(c1ccccc1)c1ccccc1`, the survivor count reads like this: (dose: 25.0 mg/kg/injection, schedule: Q01DX009 (ip), vehicle: water) 1 of 6; under setting [1], 1 of 6; (dose: 100.0 mg/kg/injection, schedule: Q01DX009 (ip), vehicle: water) 0 of 6; under setting [2], 0 of 6; (dose: 400.0 mg/kg/injection, schedule: Q01DX009 (ip), vehicle: water) 0 of 6.

Take `CCSC(SCC)C(OC(C)=O)C(OC(C)=O)C(OC(C)=O)C(CNC(C)=O)OC(C)=O` (centres undefined): the survivor count is given as 6 of 6 under setting [3] and 6 of 6 under setting [4].

With `C/C=C/C[P+](Cc1cccc(C)c1)(c1ccccc1)c1ccccc1`, the survivor count is, setting by setting: (dose: 12.5 mg/kg/injection, schedule: Q01DX009 (ip), vehicle: saline with Tween-80) 0 of 3; (dose: 25.0 mg/kg/injection, schedule: Q01DX009 (ip), vehicle: saline with Tween-80) 1 of 3; (dose: 50.0 mg/kg/injection, schedule: Q01DX009 (ip), vehicle: saline with Tween-80) 0 of 3; (dose: 100.0 mg/kg/injection, schedule: Q01DX009 (ip), vehicle: saline with Tween-80) 0 of 3; (dose: 200.0 mg/kg/injection, schedule: Q01DX009 (ip), vehicle: saline with Tween-80) 0 of 3.

For the molecule `CCC(C)C(CCCCN(C)C)(CNC(=O)CN(CC)CC)c1cccc2ccccc12` (centres undefined), the survivor count was 0 of 6 (dose: 200.0 mg/kg/injection, schedule: Q01DX009 (ip), vehicle: saline) and 0 of 6 (dose: 400.0 mg/kg/injection, schedule: Q01DX009 (ip), vehicle: saline).

Regarding `OCCN1CCN(Cc2cccc3ccccc23)CC1`, the survivor count is listed as 3 of 6 under setting [5] and 0 of 6 under setting [6].

In the case of `O=C(CN1CC1)NCCCCCCCNC(=O)CN1CC1`, the T/C by setting is: (dose: 4.3 mg/kg/injection, schedule: Q01DX001 (ip), vehicle: carboxymethylcellulose (CMC)) 126 % of control; (dose: 22.0 mg/kg/injection, schedule: Q01DX001 (ip), vehicle: carboxymethylcellulose (CMC)) 133 % of control; (dose: 50.0 mg/kg/injection, schedule: Q01DX001 (ip), vehicle: carboxymethylcellulose (CMC)) 135 % of control. In addition, the survivor count reads like this: (dose: 75.0 mg/kg/injection, schedule: Q01DX001 (ip), vehicle: carboxymethylcellulose (CMC)) 6 of 6; under setting [7], 0 of 4; (dose: 200.0 mg/kg/injection, schedule: Q01DX001 (ip), vehicle: carboxymethylcellulose (CMC)) 0 of 4; (dose: 400.0 mg/kg/injection, schedule: Q01DX001 (ip), vehicle: carboxymethylcellulose (CMC)) 0 of 4.

As to `C1C[S+]2CCN1CC2`, the survivor count by setting is: under setting [8], 1 of 4; under setting [5], 0 of 4; under setting [6], 0 of 4.

As to `O=S(=O)(F)c1cc(Cl)c(O)cc1Cl`, the survivor count (dose: 400.0 mg/kg/injection, schedule: Q01DX009 (ip), vehicle: Klucel (hydroxypropylcellulose) (HPC)) is listed as 6 of 6.

Regarding `C/C(=C\C(=O)O)CC(=O)O`, the survivor count by setting is: under setting [1], 5 of 6; under setting [2], 3 of 6; (dose: 200.0 mg/kg/injection, schedule: Q04DX003 (ip), vehicle: water) 3 of 6; (dose: 400.0 mg/kg/injection, schedule: Q04DX003 (ip), vehicle: water) 0 of 6.

Consider `O=C(O)C1CCC(CC2CC3CCC2C3)CC1` (centres undefined), for which the survivor count (dose: 400.0 mg/kg/injection, schedule: Q01DX009 (ip), vehicle: saline with Tween-80) is reported as 0 of 6.

For the molecule `Cc1c([N+](=O)[O-])cc(C(C)(C)C)c(OC(=O)C(C)(C)C)c1[N+](=O)[O-]`, the survivor count was 2 of 3 (dose: 100.0 mg/kg/injection, schedule: Q04DX002 (ip), vehicle: Klucel (hydroxypropylcellulose) (HPC)); 1 of 3 (dose: 200.0 mg/kg/injection, schedule: Q04DX002 (ip), vehicle: Klucel (hydroxypropylcellulose) (HPC)); 0 of 3 (dose: 400.0 mg/kg/injection, schedule: Q04DX002 (ip), vehicle: Klucel (hydroxypropylcellulose) (HPC)).

Take `Cc1nnnn1C1CCCCC1I` (centres undefined): the survivor count was 0 of 6 (dose: 40.0 mg/kg/injection, schedule: Q01DX001 (ip), vehicle: other); 0 of 6 (dose: 75.0 mg/kg/injection, schedule: Q01DX001 (ip), vehicle: other); 0 of 6 (dose: 150.0 mg/kg/injection, schedule: Q01DX001 (ip), vehicle: other); 0 of 6 (dose: 300.0 mg/kg/injection, schedule: Q01DX001 (ip), vehicle: other).

On to `COc1cc(/C=C/c2ccnc3ccccc23)cc(OC)c1OC`, for which the survivor count (dose: 80.0 mg/kg/injection, schedule: Q01DX001 (ip), vehicle: saline) is 0 of 6; the survivor count under setting [8] is 0 of 6; the survivor count under setting [5] is given as 1 of 6; the survivor count under setting [6] is listed as 0 of 6.

For the molecule `N#CCC(N)=S`, the survivor count (dose: 100.0 mg/kg/injection, schedule: Q04DX002 (ip), vehicle: gum acacia) is 0 of 3.

Take `O=C(CN1CC1)Nc1ccc(NC(=O)CN2CC2)cc1`: the T/C was 127 % of control [5 of 6 alive] under setting [9]; 134 and 136 % of control [5 of 6 alive] (dose: 6.0 mg/kg/injection, schedule: Q01DX009 (ip), vehicle: carboxymethylcellulose (CMC)); 137 % of control (dose: 7.3 mg/kg/injection, schedule: Q01DX009 (ip), vehicle: carboxymethylcellulose (CMC)); 127 % of control (dose: 11.0 mg/kg/injection, schedule: Q01DX001 (ip), vehicle: carboxymethylcellulose (CMC)); 128 % of control (dose: 11.1 mg/kg/injection, schedule: Q01DX001 (ip), vehicle: carboxymethylcellulose (CMC)); 133 % of control (dose: 16.6 mg/kg/injection, schedule: Q01DX001 (ip), vehicle: carboxymethylcellulose (CMC), evaluated on day 30). The T/C is 133 % of control (dose: 16.6 mg/kg/injection, schedule: Q01DX001 (ip), vehicle: carboxymethylcellulose (CMC), run until all animals had died) and 144 % of control (dose: 25.0 mg/kg/injection, schedule: Q01DX001 (ip), vehicle: carboxymethylcellulose (CMC)). Moreover, the survivor count runs as follows: under setting [9], 2 of 6; (dose: 25.0 mg/kg/injection, schedule: Q01DX009 (ip), vehicle: carboxymethylcellulose (CMC)) 6 of 6; (dose: 37.5 mg/kg/injection, schedule: Q01DX009 (ip), vehicle: carboxymethylcellulose (CMC)) 0 of 6; under setting [7], 0 of 4.

As to `O=C1OCC(Cl)=C1Cl`, the survivor count by setting is: (dose: 100.0 mg/kg/injection, schedule: Q04DX003 (ip), vehicle: saline with Tween-80) 3 of 6; under setting [3], 0 of 6; under setting [4], 0 of 6.

For the origin of these results see PubChem BioAssay AID248 (DTP/NCI, 2004).
